Measurements reported in PubChem BioAssay AID1224828 (NIAID, 2016).

Screen: 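Knock-downs that increase or decrease LPS-induced p65 nuclear translocation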 (primary screen)
Cell system: mouse RAW264.7 G9 macrophage reporter cells (GFP-p65, Tnf promoter-mCherry)
Knock-down reagent: siRNA pool against mouse genes, 100 nM
Duration: 2 days siRNA transfection, then 40 min LPS before fixation
Conditions: LPS (Salmonella minnesota R595) at 10 ng/ml
Read-out: 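Imaged p65 nuclear translocation ratio, normalised to the plate median, converted to robust z-scores and averaged across two replicates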
Direction: p65 translocation robust z-score: higher = more nuclear NF-kappaB p65 after LPS than the plate median; nuclear/cytoplasmic p65 ratio: higher = more nuclear NF-kappaB p65
Call rule: 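Called active when z exceeds 3.3 or falls under -1.56 (median of Tlr4 controls), giving activity score of at least 50; no calls for control wells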
Meaning of the calls: active = hit (p65 shift raised or lowered); inactive = no clear change
In all, the deposit lists about 17,000 reagents; below is a random part of them. 762 of all reagents (4.5%) were called active. 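Active calls include both raised and lowered p65 entry, mostly lowered; wells with fewer than 50 cells lack a z-score.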 Raw values vary from plate to plate and are shown uncorrected. The numbers tell different reagents against one gene apart. Reagent sequences are not shown.

target | reagent | p65 translocation robust z-score | nuclear/cytoplasmic p65 ratio, rep 1 | nuclear/cytoplasmic p65 ratio, rep 2 | low cell count flag | activity call
Dynll1 | 1 | -0.81 | 1.43 | 1.26 | enough cells to score | inactive
Dnajc16 | 1 | -1.97 | 1.05 | 1.05 | enough cells to score | active
Myh7 | 1 | -0.83 | 1.3 | 1.26 | enough cells to score | inactive
Slc4a4 | 1 | -0.33 | 1.45 | 1.5 | enough cells to score | inactive
Sec11a | 1 | -0.68 | 1.34 | 1.14 | enough cells to score | inactive
Gen1 | 1 | 0.27 | 1.39 | 1.51 | enough cells to score | inactive
Tll1 | 1 | -0.28 | 1.42 | 1.54 | enough cells to score | inactive
Nog | 1 | 0.31 | 1.58 | 1.37 | enough cells to score | inactive
Cd177 | 1 | -1.57 | 1.15 | 1.25 | enough cells to score | active
Cma2 | 1 | 0.41 | 1.79 | 1.71 | enough cells to score | inactive
Rnf112 | 1 | -0.75 | 0 | 1.16 | enough cells to score | inactive
Eef2 | 1 | 0.37 | 1.57 | 1.36 | enough cells to score | inactive
Pramel52-ps | 1 | 0.22 | 1.34 | 1.63 | enough cells to score | inactive
Scai | 1 | 1.48 | 1.48 | 1.83 | enough cells to score | inactive
Vmn2r129 | 1 | – | 1.43 | 1.23 | fewer than 50 cells per well; well left out of scoring | inactive
Vmn2r129 | 2 | -0.02 | 1.43 | 1.19 | enough cells to score | inactive
Dgcr6 | 1 | 1.37 | 1.7 | 1.52 | enough cells to score | inactive
Spast | 1 | -0.44 | 1.48 | 1.49 | enough cells to score | inactive
Sox15 | 1 | -0.84 | 1.38 | 1.49 | enough cells to score | inactive
Dcp1a | 1 | 1.11 | 1.64 | 1.44 | enough cells to score | inactive
Gucy2e | 1 | 0.89 | 1.86 | 1.48 | enough cells to score | inactive
Mecr | 1 | -0.17 | 1.51 | 1.31 | enough cells to score | inactive
Rbm47 | 1 | 0.02 | 1.59 | 1.83 | enough cells to score | inactive
Xylt1 | 1 | 0.79 | 1.47 | 1.39 | enough cells to score | inactive

Ordered by “p65 translocation robust z-score” (highest first): some entries from above.
target | reagent | p65 translocation robust z-score | nuclear/cytoplasmic p65 ratio, rep 1 | nuclear/cytoplasmic p65 ratio, rep 2 | low cell count flag | activity call
Cma2 | 1 | 0.41 | 1.79 | 1.71 | enough cells to score | inactive
Nog | 1 | 0.31 | 1.58 | 1.37 | enough cells to score | inactive
Rnf112 | 1 | -0.75 | 0 | 1.16 | enough cells to score | inactive
Cd177 | 1 | -1.57 | 1.15 | 1.25 | enough cells to score | active
